B1: Dlgap4 (protein, UniProt P97839 1-992)
chain: MKGLGDSRPRHLSDSLDPPHEPLFAGPDRNPYLLSPTEAFAREARFPGQNTLPGDGLFPLNNQLPPPSSTFPRIHYNSHFEVPEESPFPSHAQATKINRLPANLLDQFEKQLPIHRDGFSTLQFPRGEAKARGESPGRIRHLVHSVQRLFFTKAPSMEGTTGKVGGNGGKKGVLEDGKGRRAKSKERAKAGEPKRRSRSNISGWWSSDDNLDGEGGAFRSGPASGLMTLGRQPERTQPRYFMHAYNTISGHMLKTTKNTTTELTAPPPPPAPPATCPSLGVGTDTNYVKRGSWSTLTLSHAHEVCQKTSATLDKSLLKSKSCHQGLAYHYLQVPGGGGEWSTTLLSPRDMDSTAEGPIPCRRMRSGSYIKAMGDEDSDESGGGSPKPSPKTAARRQSYLRATQQSLGEQSNPRRSLDRLDSVDMPLPSKYPSWEEDYNPISDSLNDSGCISQVFGQASLIPQLFGHDQQVREADLSDQYEAACESACSEAESTAAEALDLSLPSYFRSRSHSYLRAIQAGCSQEEDSVSLQSLSPPPSTGSLSNSRTLPSSSCLVAYKKTPPPVPPRTTSKPFISVTVQSSTESAQDTYLDSQDHKSEVTSQSGLSNSSDSLDSSTRPPSVTRGGITPGPEAPEPPPKHAALKSEHGTLTSSESHSEAVPKRKLSSIGIQVDCIQPVPKEEPSPATKFQSIGVQVEDDWRSSAPSHSMSSRRDTDSDTQDANDSSCKSSERSLPDCTSHPNSISIDAGPRQAPKIAQIKRNLSYGDNSDPALEASSLPPPDPWMETSSSSPAEPAQPGACRRDGYWFLKLLQAETERLEGWCCQMDKETKENNLSEEVLGKVLSAVGSAQLLMSQKFQQFRGICEQNLNPDANPRPTAQDLAGFWDLLQLSIEDISMKFDELYHLKANSWQLVETPEKRKEEKKPPPPVPKKPAKSKAAVSRDKASDAGDKQRQEARKRLLAAKRAASVRQNSATESADSIEIYVPEAQTRL
B2: Myo1b (protein, UniProt Q05096 1-1136)
chain: MAKKEVKSSLLDNMIGVGDTVLLEPLNEETFIDNLKKRFDHNEIYTYIGSVVISVNPYRSLPIYSPEKVEDYRNRNFYELSPHIFALSDEAYRSLRDQDKDQCILITGESGAGKTEASKLVMSYVAAVCGKGAEVNQVKEQLLQSTPVLEAFGNAKTVRNDNSSRFGKYMDIEFDFKGDPLGGVISNYLLEKSRVVKQPRGERNFHVFYQLLSGASEELLHKLKLERDFSRYNYLSLDSAKVNGVDDAANFRTVRNAMQIVGFSDPEAESVLEVVAAVLKLGNIEFKPESRMNGLDESKIKDKNELKEICELTSIDQVVLERAFSFRTVEAKQEKVSTTLNVAQAYYARDALAKNLYSRLFSWLVNRINESIKAQTKVRKKVMGVLDIYGFEIFEDNSFEQFIINYCNEKLQQIFIELTLKEEQEEYIREDIEWTHIDYFNNAIICDLIENNTNGILAMLDEECLRPGTVTDETFLEKLNQVCATHQHFESRMSKCSRFLNDTTLPHSCFRIQHYAGKVLYQVEGFVDKNNDLLYRDLSQAMWKAGHALIKSLFPEGNPAKVNLKRPPTAGSQFKASVATLMKNLQTKNPNYIRCIKPNDKKAAHIFSESLVCHQIRYLGLLENVRVRRAGYAFRQAYEPCLERYKMLCKQTWPHWKGPARSGVEVLFNELEIPVEEYSFGRSKIFIRNPRTLFQLEDLRKQRLEDLATLIQKIYRGWKCRTHFLLMKRSQVVIAAWYRRYAQQKRYQQIKSSALVIQSYIRGWKARKILRELKHQKRCKEAATTIAAYWHGTQARKERRRLKDEARNKHAIAVIWAFWLGSKARRELKRLKEEARRKHAVAVIWAYWLGLKVRREYRKFFRANAGKKIYEFTLQRIVQKYLLEMKNKMPSLSPIDKNWPSRPYLFLDSTHKELKRIFHLWRCKKYRDQFTDQQKLIYEEKLEASELFKDKKALYPSSVGQPFQGAYLEINKNPKYKKLKDAIEEKIIIAEVVNKINRANGKSTSRIFLLTNNNLLLADQKSGQIKSEVPLVDVTKVSMSSQNDGFFAVHLKEGSEAASKGDFLFSSDHLIEMATKLYRTTLSQTKQKLNIEISDEFLVQFRQDKVCVKFIQGNQKNGSVPTCKRKNNRLLEVAVP
B3: Flii (protein, UniProt Q5RKI5 1-1270)
chain: MEATGVLPFVRGVDLSGNDFKGGYFPENVKAMTSLRWLKLNRTGLCYLPEELAALQKLEHLSVSHNNLTTLHGELSSLPSLRAIVARANSLKNSGVPDDIFKLDDLSVLDLSHNQLTECPRELENAKNMLVLNLSHNSIDSIPNQLFINLTDLLYLDLSENRLESLPPQMRRLVHLQTLVLNGNPLLHAQLRQLPAMMALQTLHLRNTQRTQSNLPTSLEGLSNLSDVDLSCNDLTRVPECLYTLPNLHRLNLSSNQIAELSLCIDQWVHLETLNLSRNQLTSLPSAICKLTKLKKLYLNSNKLDFDGLPSGIGKLTSLEEFMAANNNLELIPESLCRCPKLRKLVLNKNRLVTLPEAIHFLTEIEVLDVRENPSLVMPPKPADHTAEWYNIDFSLQNQLRLAGASPATVAAAAAVGSGSKDPLARKMRLRRRKDSAQDVQAKQVLKGMSDVAQEKNKNQEESTDARAPGGKVRRWDQGLEKPRLDYSEFFTEDVGQLPGLTIWQIENFVPVLVEEAFHGKFYEADCYIVLKTFLDDSGSLNWEIYYWIGGEATLDKKACSAIHAVNLRNYLGAECRTAREEMGDESEGFLQVFDNDISYIEGGTASGFYTVEDTHYVTRMYRVYGKKNIKLEPVPLKGTSLDPRFVFLLDQGLDIYVWRGAQATLSNTTKARLFAEKMNKNERKGKAEITLLVQGQEPPEFWDVLGGEPSEIKKHVPDDFWPPQPKLYKVGLGLGYLELPQINYKLSVEHKKRPKVELMPGMRLLQSLLDTRCVYILDCWSDVFIWLGRKSPRLVRAAALKLGQELCGMLHRPRHTVVSRSLEGTEAQVFKAKFKNWDDVLTVDYTRNAEAVLQGPGISGKVKRDTEKKDQMKADLTALFLPRQPPMPLAEAEQLMEEWNEDLDGMEGFVLEGRKFTRLAEEEFGHFYTQDCYVFLCRYWVPVEYEEEEKPEDKEGKASAEGREEEEAAAETEEKQPEEDFQCIVYFWQGREASNMGWLTFTFSLQKKFESLFPGKLEVVRMTQQQENPKFLSHFKRKFIIHRGKRKVTQTLQPTLYQIRTNGSALCTRCIQINTDSSLLNSEFCFILKVPFESEDNQGIVYAWVGRASDPDEAKLAEDILNTMFDPSYSKQVINEGEEPENFFWVGIGAQKPYDDDAEYMKHTRLFRCSNEKGYFAVTEKCSDFCQDDLADDDIMLLDNGQEVYMWVGTQTSQVEIKLSLKACQVYIQHTRSKEHERPRRLRLVRKGNEQRAFTRCFHAWSTFRQAPA
B4: Sart1 (protein, UniProt Q5XIW8 1-806)
chain: MGSSKKHRGEKEAAGTTAAAGTGGTTEQPPRHREHKKHKHRSSGGGSSGGERRKRSRERGAERGSGRRGAEAEARSGAHGRERSQAEPSERRVKREKRDEGYEAAASSKASSGDASSLSIEETNKLRAKLGLKPLEVNAVKKEAGTKEEPVAADVINPMALRQREELREKLAAAKEKRLLNQKLGKIKTLGEDDPWLDDTAAWIERSRQLQKEKDLAEKRAKLLEEMDQEFGVSTLVEEEFEQRRQDLYSARDLQGLTVEHAIDSFREGETVVLTLKDKGVLQEGEDVLVNVNMVDKERADKNVELRKKKPDYLPYAEDESVDDLAQQKPRSILAKYDEELEGERPHSFRLEQGGMADGLRERELEEIRTKLRLQAQSLNTVGPRLASEYLSPEEMVTFKKTKRRVKKIRKKEKEVIMRADDLLPLGEDQTQDGDFGSRLRGRGRRRVPEVEEEALEDEEKDPVAQPPPSDDTRVENMDISDEEDGGALPSGPPELEEDEAELELQKQLEKGRRLRQLQQLQQLRDSGEKVLEIVKKLESRQRGWEEEEDPERKGTIVFNATSEFCRTLGEIPTYGLAGNREEQEELMDFERDEERSANGGSESDGEENIGWSTVNLDEEKQHQDFSASSTTILDEEPIVNRGLAAALLLCQNKGLLETTVQKVARVKAPNKSLPSAVYCIEDKMAIDDKYSRREEYRGFTQDFKEKDGYKPDVKIEYVDETGRKLTPKEAFRQLSHRFHGKGSGKMKTERRMKKLDEEALLKKMSSSDTPLGTVALLQEKQKAQKTPYIVLSGSGKSMNANTITK
B5: Ikbkap (protein, UniProt Q8VHU4 1-1331)
chain: MRNLKLHQTLEFRDIQAPGKPQCFCLRAEQGTVLIGSERGLTEVDPVKKEVKTEISLVAEGFLPEDGSGCIVGIQDLLDQESVCVATASGDVIVCNVSTQQLECVGNVASGISVMSWSPDQELLLLATAQQTLIMMTRDYEVITEQQIHQDDFGEGKFITVGWGSKDTQFHGSEGRPITFPVQMHESALSWDDHRPQITWRGDGQFFAVSVVCSQTGARKIRVWNREFALQSTSESVPGLGPSLAWKPSGSLIASTQDKPNQQDVVFFEKNGLLHGYFTLPFLKDEVKVNDLLWNADSSVLAVWLEDLPKEGSSTLKSYVQLWTVGNYHWYLKQSLPFSTTGKNQIVSLLWDPVTPGRLHVLCQGWRYLCCDWHWTTDRSSGNSADDLANVAVIDGNKVLVTVFQRTVTPPPMCTYRLLIPHPVNQVMSSAHLGNDLAVLDASNQISVYKCDDKPDMDSTVKLGAVGGTGFKVPLRTPHLEKRYRIQFGNKEEEEDVSPLQFRFLTWIEGDAFLAISHSHSSPQSIIHHLTMAGSEGDEEQGQLNVSSSVTVDGVVIGLCCCSKTKSSAVQLADGQVLKYLWESPSSAVEPWKNSEGRPVRFARPCTQMEAAAIGGEECVLGLTDRCRFFINDTEVASNITSFAVCDDFLLVTTHSHTCQCFSLSGASLKMLQAGLCGSQVPSGEILRKVERGSRIVTVVPQDTKLILQMPRGNLEVVHHRALVLAQIRKWLDKLMFKEAFECMRKLRINLNLIHDHNPKVFLENVETFIKQIDSVNHLNLFFTELKEEDVTKTMYPPPVTKSVQVSTNPDGKKVDLICDAMRVAMETINPRKFCLSILTSHVKKTTPELDIVLQKVHELQGKIPFVPESVSAEEALKYLLLLVDVNELFNHSLGTYDFDLVLMVAEKSQKDPKEYLPFLNTLKKMETNYQRFTIDKYLKRYEKALGHLSKCGPEYFTECLNLIKDKNLYKEALKLYRPDSPQYQAVSVAYGEHLVQELLYEPAGLVFARCGAHEKALEAFLACGSWQQALCMAAQLQMAKDKVAGLARTLAGKLVEQRKHSEAATVLEQYALDYEEAVLLLLEGSAWEEALRLVYKYDRVDIIETSVKPSILEAQKNYMDFLDSQTATFIRHKNRLKVVRELKSQRPRVHVDHEVAHGRETDLFSETSSIRSGSEMSGRYSHSNSRISARSSKNRRKAERKKHSLKEGSPLEGLALLEALSEVVQSIEKLKDEVHAILKVLFLFEFEEQARELQRAFESTLQLMGTALPDIWTLTGQQSSSTPVLGPSSTVNSIMASYQQQKTCVPVLDAWACLPPKIDQRSQWKLSLLE

Sequences of proteins named here, by UniProt entry; tags and fusion partners are left off.
UniProt Q9NZV8: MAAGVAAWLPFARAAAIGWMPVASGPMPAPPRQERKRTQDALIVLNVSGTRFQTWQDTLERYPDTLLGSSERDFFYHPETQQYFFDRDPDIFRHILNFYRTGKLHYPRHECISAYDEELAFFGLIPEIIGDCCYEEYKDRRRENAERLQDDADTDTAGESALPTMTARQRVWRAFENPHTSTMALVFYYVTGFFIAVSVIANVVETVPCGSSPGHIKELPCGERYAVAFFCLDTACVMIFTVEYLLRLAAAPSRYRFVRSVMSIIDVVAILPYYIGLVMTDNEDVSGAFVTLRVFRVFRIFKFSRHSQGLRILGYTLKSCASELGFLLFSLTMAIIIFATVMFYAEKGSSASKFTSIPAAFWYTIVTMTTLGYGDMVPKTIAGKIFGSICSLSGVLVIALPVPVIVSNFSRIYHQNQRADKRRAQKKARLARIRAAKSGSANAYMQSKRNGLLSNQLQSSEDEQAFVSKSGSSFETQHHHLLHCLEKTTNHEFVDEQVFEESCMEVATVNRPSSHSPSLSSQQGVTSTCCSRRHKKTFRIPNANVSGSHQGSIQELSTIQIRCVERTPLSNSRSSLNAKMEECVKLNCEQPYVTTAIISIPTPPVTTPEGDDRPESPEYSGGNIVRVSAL

Results are given in words; binding and its absence hold for the method and conditions named. In cells and extracts the contact can be indirect. A yes stands for co-enrichment or nearness to the bait. Other partners may have been found.

This experiment deals with TAP-Kv4.2 (human) (UniProt Q9NZV8). The experiment is described as follows: affinity purification with mass spectrometry; TAP-Kv4.2 expressed by lentivirus in rat hippocampal neurons, harvested at DIV14; strong lysis buffer (1% Triton X-100, 0.5% deoxycholate in PBS, pH 7.4); streptavidin resin, then calmodulin resin; gel cut into high and low molecular weight fragments; no MS of the control sample.
As for B1, the binding entry is “binds”. Take B2: the binding entry is “binds”. As for B3, the binding entry is “binds”. Next, B4: “binds”; B5: “binds”.

Values taken from article PMC9788671.
